The values below come from publication PMC12138102 (Acta Pharmaceutica Sinica. B, 2025).

In one data set the test system is BuChE. The data set can be described thus: Reversibility of BuChE inhibition. It is filed as biochemical.
The nature of data set [1]: AlCl3-induced zebrafish AD model. The following applies: in vivo, 3 μg/mL.

For the compound `COc1cc2c(cc1OC)C(=O)C(CC1CCN(Cc3ccccc3)CC1)C2` (stereo not shown) [Donepezil], the “BuChE activity after dilution, start of monitoring” value in the data set with BuChE (0.1 × IC50) worked out at 51.3%. The “recovery of BuChE activity / reversibility” value in the data set on BuChE (0.1 × IC50, 120 min) is reported as “reversible inhibition of BuChE”. Also, in the data set on BuChE (0.1 × IC50, over 120 min), the “BuChE activity after dilution, end of monitoring” value turned out to be 68.2%. The concentration at 48 h in data set [1] came to 329 ng/mL.
